Results reported in patent publication US7491499.
Results are given in words; binding and its absence hold for the method and conditions named. Binding seen in cells or lysates may run through a third protein. Some results given as binding are weak or reduced against the parent protein; the word gives no strength. Tags and fused reporters may be left off the sequences shown. Each block holds one binder with its values, some of them ahead of it.

Experiments:
[1] = target: T1, GST-tagged DISC1 protein fragment (amino acids 347-600) (UniProt Q9NRI5); assay: in vitro binding assay, glutathione Sepharose pull-down, anti-His Western blot
T1 sequence (looked up): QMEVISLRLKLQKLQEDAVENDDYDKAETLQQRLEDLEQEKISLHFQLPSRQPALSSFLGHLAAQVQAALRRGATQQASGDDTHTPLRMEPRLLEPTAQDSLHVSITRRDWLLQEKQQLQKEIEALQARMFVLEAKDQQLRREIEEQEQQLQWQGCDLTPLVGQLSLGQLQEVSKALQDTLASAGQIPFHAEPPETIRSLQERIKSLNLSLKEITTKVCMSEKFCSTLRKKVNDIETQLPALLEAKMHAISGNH

[2] = target: T2, wtDISC1-myc (myc-tagged wild-type DISC1 protein) (UniProt Q9NRI5); assay: co-immunoprecipitation in HEK293 cells, anti-myc precipitation, anti-HA Western blot
T2 sequence (looked up): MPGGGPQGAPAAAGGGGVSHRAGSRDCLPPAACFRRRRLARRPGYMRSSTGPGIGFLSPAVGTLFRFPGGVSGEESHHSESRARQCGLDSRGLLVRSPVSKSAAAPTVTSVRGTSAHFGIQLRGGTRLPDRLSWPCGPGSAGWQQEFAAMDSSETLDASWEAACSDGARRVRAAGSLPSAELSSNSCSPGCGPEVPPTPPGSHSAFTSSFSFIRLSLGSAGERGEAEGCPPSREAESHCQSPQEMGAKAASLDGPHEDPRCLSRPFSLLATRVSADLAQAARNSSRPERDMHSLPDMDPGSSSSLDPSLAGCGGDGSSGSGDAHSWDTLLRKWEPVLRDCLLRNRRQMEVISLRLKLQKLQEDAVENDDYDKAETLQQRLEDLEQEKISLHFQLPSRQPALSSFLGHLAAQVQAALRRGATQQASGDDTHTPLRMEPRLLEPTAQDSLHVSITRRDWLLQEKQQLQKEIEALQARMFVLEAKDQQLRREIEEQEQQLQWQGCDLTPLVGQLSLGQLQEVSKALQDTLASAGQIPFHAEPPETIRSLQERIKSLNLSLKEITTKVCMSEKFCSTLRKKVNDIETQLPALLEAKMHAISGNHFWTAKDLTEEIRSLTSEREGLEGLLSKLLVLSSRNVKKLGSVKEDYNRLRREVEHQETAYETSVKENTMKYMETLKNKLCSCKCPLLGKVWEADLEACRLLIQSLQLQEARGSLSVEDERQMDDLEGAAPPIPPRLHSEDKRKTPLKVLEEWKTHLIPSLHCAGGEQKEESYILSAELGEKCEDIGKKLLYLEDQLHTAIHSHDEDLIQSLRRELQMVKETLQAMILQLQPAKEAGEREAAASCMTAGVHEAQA

[3] = target: T2, wtDISC1-myc (myc-tagged wild-type DISC1 protein); assay: co-immunoprecipitation in HEK293 cells with an anti-myc antibody

- binding [1]: binds
B1: His-tagged DISC1 protein fragment (amino acids 347-600) (protein, UniProt Q9NRI5 347-600, looked up, not shown: small tags and cut ends)
chain: T1 sequence (looked up)

- binding [2]: binds
- binding [3]: binds
B2: wtDISC1-HA (HA-tagged wild-type DISC1 protein) (protein, UniProt Q9NRI5 1-854, looked up, not shown: small tags and cut ends)
chain: T2 sequence (looked up)
